Here are results for two sequences from patent publication US8748104.

For at least one entry, the source does not settle the construct or the ends of the probe. No signal at the amounts used counts as a negative.

For this series, the target named is serum albumin (Homo sapiens) (UniProt P02768). Briefly: binding assay. The note with it: negative control in Luminex bead assay; room temperature, PBS washes; label: biotin; single-stranded DNA.

Take “GGGATGGGGTGGGTGGCCAGCGATT [SEQ ID NO: 1 aptamer]”: the binding result is “no binding”.
In the case of “TTAGGGGTGGTGTGGTTGGCAATTC [SEQ ID NO: 2 aptamer]” it was “no binding”.
